Results are given in words; binding and its absence hold for the method and conditions named. Some results given as binding are weak or reduced against the parent protein; the word gives no strength.
Target: PD-L1-his fusion protein (Homo sapiens (Human)) (UniProt Q9NZQ7)
Test: ELISA, PD-L1-his coated, culture supernatant of the clone

Amino acid sequences for entries named in this document (tags omitted). A change or cut given only in a name is not applied to a line headed by its entry.
UniProt Q9NZQ7: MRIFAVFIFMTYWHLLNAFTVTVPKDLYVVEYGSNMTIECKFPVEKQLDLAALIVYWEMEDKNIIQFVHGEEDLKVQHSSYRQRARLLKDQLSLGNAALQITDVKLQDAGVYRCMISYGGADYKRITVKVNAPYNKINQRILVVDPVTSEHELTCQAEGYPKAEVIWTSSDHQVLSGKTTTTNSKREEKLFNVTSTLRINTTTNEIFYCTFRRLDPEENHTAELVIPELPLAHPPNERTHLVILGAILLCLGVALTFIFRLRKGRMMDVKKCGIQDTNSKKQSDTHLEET

- binding: binds
B1: QP1120 nanobody (VHH)
VHH: QVQLVESGGGSVQSGGSLRLSCAASGFTYGTYAMSWFRQAPGKEREGVACIDIYGRTSYTDPVKGRFTISQDNAKNTLYLQMNSLKPEDTAMYYCAARDFGYCTASWVHEGFSRYWGQGTQVTVSS

Reference: patent US20220242974A1 (QURE BIOTECHNOLOGY SHANGHAI, published 2022)
